Test results as given in PMC8414691.
Results are given in words; binding and its absence hold for the method and conditions named. Binding seen in cells or lysates may run through a third protein. Some results given as binding are weak or reduced against the parent protein; the word gives no strength.

By UniProt entry, the sequences of proteins in these tests, tags left out.
UniProt Q6ZRS2: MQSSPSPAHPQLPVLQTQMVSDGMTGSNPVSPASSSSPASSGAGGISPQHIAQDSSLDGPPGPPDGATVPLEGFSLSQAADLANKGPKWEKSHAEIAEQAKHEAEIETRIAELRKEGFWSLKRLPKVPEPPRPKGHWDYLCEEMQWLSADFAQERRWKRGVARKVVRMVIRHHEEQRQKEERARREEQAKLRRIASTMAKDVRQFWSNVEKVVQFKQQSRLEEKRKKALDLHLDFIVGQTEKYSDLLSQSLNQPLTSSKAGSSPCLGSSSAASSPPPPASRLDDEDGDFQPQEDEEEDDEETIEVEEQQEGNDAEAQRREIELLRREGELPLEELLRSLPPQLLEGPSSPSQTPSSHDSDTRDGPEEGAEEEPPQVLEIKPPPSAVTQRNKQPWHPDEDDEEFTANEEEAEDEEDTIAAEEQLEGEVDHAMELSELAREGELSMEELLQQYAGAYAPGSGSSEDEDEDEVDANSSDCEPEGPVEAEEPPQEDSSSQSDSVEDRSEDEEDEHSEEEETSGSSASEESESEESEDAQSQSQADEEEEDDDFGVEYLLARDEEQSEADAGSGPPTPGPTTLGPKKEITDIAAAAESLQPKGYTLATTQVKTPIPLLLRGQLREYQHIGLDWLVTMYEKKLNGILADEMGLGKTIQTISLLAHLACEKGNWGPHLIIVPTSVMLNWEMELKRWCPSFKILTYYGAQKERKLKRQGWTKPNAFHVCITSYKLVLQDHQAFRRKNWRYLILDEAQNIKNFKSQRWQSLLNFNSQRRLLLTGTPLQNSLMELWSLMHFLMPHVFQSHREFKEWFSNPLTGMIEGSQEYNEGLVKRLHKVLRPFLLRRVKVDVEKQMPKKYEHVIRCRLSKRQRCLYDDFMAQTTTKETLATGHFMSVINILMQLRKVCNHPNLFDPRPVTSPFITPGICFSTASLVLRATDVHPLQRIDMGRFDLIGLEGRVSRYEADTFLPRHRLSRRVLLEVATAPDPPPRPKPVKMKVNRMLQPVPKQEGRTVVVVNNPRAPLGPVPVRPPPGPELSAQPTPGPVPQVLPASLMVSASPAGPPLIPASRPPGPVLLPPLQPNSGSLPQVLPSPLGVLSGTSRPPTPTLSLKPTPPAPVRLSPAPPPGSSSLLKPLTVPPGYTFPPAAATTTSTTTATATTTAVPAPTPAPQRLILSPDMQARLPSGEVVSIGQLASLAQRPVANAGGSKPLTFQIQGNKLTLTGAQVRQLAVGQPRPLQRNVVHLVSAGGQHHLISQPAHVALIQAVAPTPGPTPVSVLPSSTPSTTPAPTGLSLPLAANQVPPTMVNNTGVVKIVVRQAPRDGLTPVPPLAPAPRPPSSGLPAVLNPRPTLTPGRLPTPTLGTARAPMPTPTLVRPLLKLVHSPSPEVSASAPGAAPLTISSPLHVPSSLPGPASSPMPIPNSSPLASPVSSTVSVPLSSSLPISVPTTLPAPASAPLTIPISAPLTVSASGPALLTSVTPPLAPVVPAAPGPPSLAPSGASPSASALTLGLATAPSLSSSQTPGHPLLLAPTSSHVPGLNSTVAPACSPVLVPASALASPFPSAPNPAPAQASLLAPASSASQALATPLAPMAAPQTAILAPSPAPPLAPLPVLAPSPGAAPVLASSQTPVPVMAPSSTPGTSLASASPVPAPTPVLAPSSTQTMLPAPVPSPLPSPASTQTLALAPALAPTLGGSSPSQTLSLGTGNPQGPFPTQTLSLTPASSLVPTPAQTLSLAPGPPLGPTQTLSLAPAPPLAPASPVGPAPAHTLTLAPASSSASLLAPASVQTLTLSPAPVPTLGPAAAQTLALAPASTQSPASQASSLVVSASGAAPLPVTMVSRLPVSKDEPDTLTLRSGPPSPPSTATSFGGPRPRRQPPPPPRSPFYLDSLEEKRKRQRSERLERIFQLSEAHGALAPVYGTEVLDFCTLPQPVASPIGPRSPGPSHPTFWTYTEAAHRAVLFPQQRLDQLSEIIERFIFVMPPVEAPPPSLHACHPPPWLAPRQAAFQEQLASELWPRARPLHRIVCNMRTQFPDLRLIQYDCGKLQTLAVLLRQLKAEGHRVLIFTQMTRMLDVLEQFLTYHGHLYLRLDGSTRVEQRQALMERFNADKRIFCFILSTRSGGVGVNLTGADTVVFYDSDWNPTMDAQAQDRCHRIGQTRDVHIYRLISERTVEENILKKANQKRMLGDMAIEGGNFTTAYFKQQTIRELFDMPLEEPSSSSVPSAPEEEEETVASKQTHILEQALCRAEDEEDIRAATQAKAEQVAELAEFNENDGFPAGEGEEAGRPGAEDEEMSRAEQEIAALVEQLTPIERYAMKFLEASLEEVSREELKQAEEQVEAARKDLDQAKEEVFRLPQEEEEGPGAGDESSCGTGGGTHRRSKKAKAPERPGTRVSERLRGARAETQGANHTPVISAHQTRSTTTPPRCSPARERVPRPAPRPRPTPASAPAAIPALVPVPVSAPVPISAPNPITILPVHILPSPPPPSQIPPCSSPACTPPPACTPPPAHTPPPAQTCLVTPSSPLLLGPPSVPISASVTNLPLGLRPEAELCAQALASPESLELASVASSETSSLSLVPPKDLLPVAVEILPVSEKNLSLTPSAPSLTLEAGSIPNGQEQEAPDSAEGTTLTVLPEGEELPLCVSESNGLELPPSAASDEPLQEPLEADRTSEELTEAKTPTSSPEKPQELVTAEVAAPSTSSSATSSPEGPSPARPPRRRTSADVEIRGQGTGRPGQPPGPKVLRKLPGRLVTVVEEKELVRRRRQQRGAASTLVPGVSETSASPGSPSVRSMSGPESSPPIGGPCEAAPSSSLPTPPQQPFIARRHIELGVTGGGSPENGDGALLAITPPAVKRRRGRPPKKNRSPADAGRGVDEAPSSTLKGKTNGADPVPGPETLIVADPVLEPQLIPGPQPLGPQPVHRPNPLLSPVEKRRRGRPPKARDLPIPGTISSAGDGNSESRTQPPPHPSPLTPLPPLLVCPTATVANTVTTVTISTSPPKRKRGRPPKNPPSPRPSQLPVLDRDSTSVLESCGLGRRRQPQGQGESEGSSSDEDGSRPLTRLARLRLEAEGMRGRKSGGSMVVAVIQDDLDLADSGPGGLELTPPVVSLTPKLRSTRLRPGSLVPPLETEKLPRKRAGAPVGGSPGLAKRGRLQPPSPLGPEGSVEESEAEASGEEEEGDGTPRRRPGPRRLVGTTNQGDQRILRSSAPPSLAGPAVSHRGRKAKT
UniProt Q8WUM4: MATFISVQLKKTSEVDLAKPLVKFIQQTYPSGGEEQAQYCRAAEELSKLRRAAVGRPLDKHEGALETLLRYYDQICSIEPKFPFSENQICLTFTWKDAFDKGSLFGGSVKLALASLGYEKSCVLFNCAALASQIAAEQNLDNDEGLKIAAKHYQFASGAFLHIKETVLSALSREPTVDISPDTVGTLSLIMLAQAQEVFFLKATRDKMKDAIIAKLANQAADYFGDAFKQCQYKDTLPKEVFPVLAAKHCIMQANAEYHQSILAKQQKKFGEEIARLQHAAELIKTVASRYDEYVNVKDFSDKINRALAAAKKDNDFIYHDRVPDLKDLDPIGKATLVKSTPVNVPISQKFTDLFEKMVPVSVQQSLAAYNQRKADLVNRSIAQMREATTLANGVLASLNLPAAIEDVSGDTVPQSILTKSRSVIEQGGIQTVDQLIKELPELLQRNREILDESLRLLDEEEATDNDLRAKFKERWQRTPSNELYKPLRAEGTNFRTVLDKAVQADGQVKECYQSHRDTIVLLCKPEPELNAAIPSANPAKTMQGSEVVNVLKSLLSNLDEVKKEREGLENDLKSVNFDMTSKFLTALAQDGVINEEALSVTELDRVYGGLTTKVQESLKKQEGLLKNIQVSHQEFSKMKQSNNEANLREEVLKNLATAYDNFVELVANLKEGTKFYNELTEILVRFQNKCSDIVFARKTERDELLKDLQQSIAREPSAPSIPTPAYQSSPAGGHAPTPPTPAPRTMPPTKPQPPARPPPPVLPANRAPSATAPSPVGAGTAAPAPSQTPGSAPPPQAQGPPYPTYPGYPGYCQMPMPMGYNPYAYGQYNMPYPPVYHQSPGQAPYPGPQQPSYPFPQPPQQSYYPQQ
UniProt Q96GD4: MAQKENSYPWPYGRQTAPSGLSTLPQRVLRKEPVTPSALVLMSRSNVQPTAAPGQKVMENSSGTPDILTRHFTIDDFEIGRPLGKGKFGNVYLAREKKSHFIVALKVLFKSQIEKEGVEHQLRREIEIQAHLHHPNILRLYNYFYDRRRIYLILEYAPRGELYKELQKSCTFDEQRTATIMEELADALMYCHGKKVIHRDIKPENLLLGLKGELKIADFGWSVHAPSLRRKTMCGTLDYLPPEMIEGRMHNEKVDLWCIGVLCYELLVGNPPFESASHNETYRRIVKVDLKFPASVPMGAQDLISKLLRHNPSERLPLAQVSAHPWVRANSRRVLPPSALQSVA
UniProt O95235: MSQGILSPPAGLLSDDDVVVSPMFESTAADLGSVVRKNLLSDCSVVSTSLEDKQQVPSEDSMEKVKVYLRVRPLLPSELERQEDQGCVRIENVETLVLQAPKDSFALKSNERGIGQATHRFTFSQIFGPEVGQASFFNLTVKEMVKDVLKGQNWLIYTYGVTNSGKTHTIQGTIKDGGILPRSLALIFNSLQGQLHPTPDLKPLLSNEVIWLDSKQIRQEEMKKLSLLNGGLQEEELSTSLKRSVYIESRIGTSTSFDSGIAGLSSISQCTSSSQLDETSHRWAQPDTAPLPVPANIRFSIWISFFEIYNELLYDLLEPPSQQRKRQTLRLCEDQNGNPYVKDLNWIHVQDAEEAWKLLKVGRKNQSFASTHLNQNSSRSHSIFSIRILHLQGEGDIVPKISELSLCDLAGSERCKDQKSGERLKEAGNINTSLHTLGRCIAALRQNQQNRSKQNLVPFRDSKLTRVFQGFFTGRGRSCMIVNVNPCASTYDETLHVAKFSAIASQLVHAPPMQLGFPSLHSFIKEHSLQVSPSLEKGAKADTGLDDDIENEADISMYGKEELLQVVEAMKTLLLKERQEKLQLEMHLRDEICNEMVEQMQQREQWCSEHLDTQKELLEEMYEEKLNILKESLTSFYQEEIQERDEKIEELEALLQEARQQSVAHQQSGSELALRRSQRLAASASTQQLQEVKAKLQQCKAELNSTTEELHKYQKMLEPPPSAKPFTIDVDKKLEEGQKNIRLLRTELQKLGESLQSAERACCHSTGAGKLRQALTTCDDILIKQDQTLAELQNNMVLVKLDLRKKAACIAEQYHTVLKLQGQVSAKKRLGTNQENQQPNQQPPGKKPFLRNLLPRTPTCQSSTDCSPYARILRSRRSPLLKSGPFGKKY
UniProt P53350: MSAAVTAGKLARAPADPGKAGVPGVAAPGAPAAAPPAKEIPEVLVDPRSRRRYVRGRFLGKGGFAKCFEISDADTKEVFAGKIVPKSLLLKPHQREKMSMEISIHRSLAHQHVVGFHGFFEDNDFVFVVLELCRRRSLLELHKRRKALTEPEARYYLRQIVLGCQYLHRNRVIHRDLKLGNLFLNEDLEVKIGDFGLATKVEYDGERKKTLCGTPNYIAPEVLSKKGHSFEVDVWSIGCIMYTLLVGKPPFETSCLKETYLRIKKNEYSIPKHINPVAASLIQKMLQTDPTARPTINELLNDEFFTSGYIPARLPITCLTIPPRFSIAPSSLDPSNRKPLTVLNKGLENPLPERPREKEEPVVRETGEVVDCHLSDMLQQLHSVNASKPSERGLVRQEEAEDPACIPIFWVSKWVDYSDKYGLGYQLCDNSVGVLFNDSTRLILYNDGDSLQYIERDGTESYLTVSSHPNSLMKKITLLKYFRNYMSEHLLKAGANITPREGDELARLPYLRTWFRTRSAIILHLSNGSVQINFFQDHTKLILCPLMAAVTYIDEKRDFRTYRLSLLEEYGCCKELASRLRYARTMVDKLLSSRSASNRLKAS

B1: CEP55 (protein, UniProt Q53EZ4 1-464)
chain: MSSRSTKDLIKSKWGSKPSNSKSETTLEKLKGEIAHLKTSVDEITSGKGKLTDKERHRLLEKIRVLEAEKEKNAYQLTEKDKEIQRLRDQLKARYSTTTLLEQLEETTREGERREQVLKALSEEKDVLKQQLSAATSRIAELESKTNTLRLSQTVAPNCFNSSINNIHEMEIQLKDALEKNQQWLVYDQQREVYVKGLLAKIFELEKKTETAAHSLPQQTKKPESEGYLQEEKQKCYNDLLASAKKDLEVERQTITQLSFELSEFRRKYEETQKEVHNLNQLLYSQRRADVQHLEDDRHKTEKIQKLREENDIARGKLEEEKKRSEELLSQVQFLYTSLLKQQEEQTRVALLEQQMQACTLDFENEKLDRQHVQHQLHVILKELRKARNQITQLESLKQLHEFAITEPLVTFQGETENREKVAASPKSPTAALNESLVECPKCNIQYPATEHRDLLVHVEYCSK
B2: Spastin (protein, UniProt Q9UBP0 1-616)
chain: MNSPGGRGKKKGSGGASNPVPPRPPPPCLAPAPPAAGPAPPPESPHKRNLYYFSYPLFVGFALLRLVAFHLGLLFVWLCQRFSRALMAAKRSSGAAPAPASASAPAPVPGGEAERVRVFHKQAFEYISIALRIDEDEKAGQKEQAVEWYKKGIEELEKGIAVIVTGQGEQCERARRLQAKMMTNLVMAKDRLQLLEKMQPVLPFSKSQTDVYNDSTNLACRNGHLQSESGAVPKRKDPLTHTSNSLPRSKTVMKTGSAGLSGHHRAPSYSGLSMVSGVKQGSGPAPTTHKGTPKTNRTNKPSTPTTATRKKKDLKNFRNVDSNLANLIMNEIVDNGTAVKFDDIAGQDLAKQALQEIVILPSLRPELFTGLRAPARGLLLFGPPGNGKTMLAKAVAAESNATFFNISAASLTSKYVGEGEKLVRALFAVARELQPSIIFIDEVDSLLCERREGEHDASRRLKTEFLIEFDGVQSAGDDRVLVMGATNRPQELDEAVLRRFIKRVYVSLPNEETRLLLLKNLLCKQGSPLTQKELAQLARMTDGYSGSDLTALAKDAALGPIRELKPEQVKNMSASEMRNIRLSDFTESLKKIKRSVSPQTLEAYIRWNKDFGDTTV
B3: Anillin (protein, UniProt Q9NQW6 1-1124)
chain: MDPFTEKLLERTRARRENLQRKMAERPTAAPRSMTHAKRARQPLSEASNQQPLSGGEEKSCTKPSPSKKRCSDNTEVEVSNLENKQPVESTSAKSCSPSPVSPQVQPQAADTISDSVAVPASLLGMRRGLNSRLEATAASSVKTRMQKLAEQRRRWDNDDMTDDIPESSLFSPMPSEEKAASPPRPLLSNASATPVGRRGRLANLAATICSWEDDVNHSFAKQNSVQEQPGTACLSKFSSASGASARINSSSVKQEATFCSQRDGDASLNKALSSSADDASLVNASISSSVKATSPVKSTTSITDAKSCEGQNPELLPKTPISPLKTGVSKPIVKSTLSQTVPSKGELSREICLQSQSKDKSTTPGGTGIKPFLERFGERCQEHSKESPARSTPHRTPIITPNTKAIQERLFKQDTSSSTTHLAQQLKQERQKELACLRGRFDKGNIWSAEKGGNSKSKQLETKQETHCQSTPLKKHQGVSKTQSLPVTEKVTENQIPAKNSSTEPKGFTECEMTKSSPLKITLFLEEDKSLKVTSDPKVEQKIEVIREIEMSVDDDDINSSKVINDLFSDVLEEGELDMEKSQEEMDQALAESSEEQEDALNISSMSLLAPLAQTVGVVSPESLVSTPRLELKDTSRSDESPKPGKFQRTRVPRAESGDSLGSEDRDLLYSIDAYRSQRFKETERPSIKQVIVRKEDVTSKLDEKNNAFPCQVNIKQKMQELNNEINMQQTVIYQASQALNCCVDEEHGKGSLEEAEAERLLLIATGKRTLLIDELNKLKNEGPQRKNKASPQSEFMPSKGSVTLSEIRLPLKADFVCSTVQKPDAANYYYLIILKAGAENMVATPLASTSNSLNGDALTFTTTFTLQDVSNDFEINIEVYSLVQKKDPSGLDKKKKTSKSKAITPKRLLTSITTKSNIHSSVMASPGGLSAVRTSNFALVGSYTLSLSSVGNTKFVLDKVPFLSSLEGHIYLKIKCQVNSSVEERGFLTIFEDVSGFGAWHRRWCVLSGNCISYWTYPDDEKRKNPIGRINLANCTSRQIEPANREFCARRNTFELITVRPQREDDRETLVSQCRDTLCVTKNWLSADTKEERDLWMQKLNQVLVDIRLWQPDACYKPIGKP

Target: SRCAP (SNF2-related CBP activator protein) (human (endogenous in HeLa)) (UniProt Q6ZRS2)
Assay: co-IP; endogenous SRCAP immunoprecipitated with a rabbit polyclonal anti-SRCAP antibody (Kerafast) from the cytosolic fraction (S2, 2 mg/ml) of telophase-synchronized HeLa cells (thymidine/nocodazole blocks); negative control: beads without antibody; partners detected by Western blotting

binding | Molecule
binds | Alix (from UniProt Q8WUM4 1-868)
binds | Aurora B (from UniProt Q96GD4 1-344)
binds | Cit-K (from UniProt O14578 1-2027)
binds | MKLP2 (from UniProt O95235 1-890)
binds | PLK1 (from UniProt P53350 1-603)
binds | B1
binds | B2
binds | B3
